From publication PMC7819943, “Rice protein-binding microarrays: a tool to detect cis-acting elements near promoter regions in rice”
This is one part of the list.

Protein sequences, listed by entry. Tags and fused reporters are not part of them.
UniProt Q0JBA9, entry or part of it: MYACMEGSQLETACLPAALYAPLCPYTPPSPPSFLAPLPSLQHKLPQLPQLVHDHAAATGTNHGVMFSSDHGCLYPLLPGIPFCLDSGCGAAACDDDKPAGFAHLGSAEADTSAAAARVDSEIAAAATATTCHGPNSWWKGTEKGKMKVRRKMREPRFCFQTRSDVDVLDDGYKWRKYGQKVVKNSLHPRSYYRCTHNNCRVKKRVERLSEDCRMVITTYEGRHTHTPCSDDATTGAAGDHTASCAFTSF

molecular target: OsWRKY34 (Oryza sativa, UniProt Q0JBA9 1-250); test: protein-binding microarray (RPBM); PBS, 2% BSA, 51.3 ng/ul salmon testes DNA, 50 uM zinc acetate, 200 nM TF, 25 C, 1 h; high values mean tight binding; details: protein: recombinant; tags: N-terminal polyhistidine and DsRed monomer fusion (pET32a); label: CyDye5-dUTP incorporated in the synthesized complementary strand; 3' TTTTT single-stranded linker to array surface; dsDNA, one strand shown
Summary of the method: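 Ni–NTA purification followed expression in E. coli BL21-CodonPlus of transcription factors fused N-terminally to a polyhistidine tag and DsRed. At 200 nM in PBS with 2% BSA, salmon testes DNA and 50 µM zinc acetate, the protein was incubated for 1 h at 25 °C with a custom Agilent array that had been primer-extended with Cy5-dUTP and blocked with 2% BSA. After washing, the array was read on an Axon 4000B scanner. The binding signal is per-feature fluorescence intensity in arbitrary units.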

Sequence | binding signal
CTTTTCTTTCTTTCTTTTCGCACTTACAAAACAGCACTGTCGGAGTCACCTAGTGCAG | 10200 fluorescence intensity (a.u.)
AGGAGGGGTACAGTGGACAGCTCAAACCGAGAGGGGAGGGCGGAGTCACCTAGTGCAG | 8970 fluorescence intensity (a.u.)
TTGCTTTGAGACAACGGGCCACCAGGGGAGGGGACAGCACCGGAGTCACCTAGTGCAG | 9500 fluorescence intensity (a.u.)
ATAATGTTGTTCTTCGCATCGGTTGTAATTTGGTAATGCCCGGAGTCACCTAGTGCAG | 11200 fluorescence intensity (a.u.)
CTGGATAATTCATCCGACCTTTATTTTTTCATGAAATCTGCGGAGTCACCTAGTGCAG | 8340 fluorescence intensity (a.u.)
ACTTCATTTAATACGTGCGGTCCTTCCTACCGAGCCATATCGGAGTCACCTAGTGCAG | 8500 fluorescence intensity (a.u.)
GAAATTTTGACCTTGTTTTACAGATACTCCAGCTCATTCACGGAGTCACCTAGTGCAG | 8990 fluorescence intensity (a.u.)
GCCCCACCAAACCTACACCAACCTCATATTCCTCTAGCCGCGGAGTCACCTAGTGCAG | 9350 fluorescence intensity (a.u.)
TACTCCCGCCTCCTCATCCGGTTCCCGCCACTCCTATTTACGGAGTCACCTAGTGCAG | 12200 fluorescence intensity (a.u.)
GCCCTTTCGCATTTTACCTCGGCACACGGTAGACTCTCGACGGAGTCACCTAGTGCAG | 8980 fluorescence intensity (a.u.)
TTTCTTCATGCACTGCTCCTACGTGCCGCGATCATTGCTTCGGAGTCACCTAGTGCAG | 9110 fluorescence intensity (a.u.)
AAGGTGTGTGTCACTGGGGCTTCTGGCTATGTTGCCTCTTCGGAGTCACCTAGTGCAG | 8620 fluorescence intensity (a.u.)
CTCTTCCACGCTTCGGCTTCCATCCAATCATCTGCATCGTCGGAGTCACCTAGTGCAG | 8380 fluorescence intensity (a.u.)
TTCCACCTGAGCCTGTCTGTTAAACCTTCCACATCTCCTCCGGAGTCACCTAGTGCAG | 8560 fluorescence intensity (a.u.)
GTCGCCGTAGCCCACTGCCTCCAACGCTCTCCTCGGCGCCCGGAGTCACCTAGTGCAG | 9360 fluorescence intensity (a.u.)
TCTCTTCTCTAGTTCTCTTCTTCTTCTTGGCTGCTGTGCTCGGAGTCACCTAGTGCAG | 9600 fluorescence intensity (a.u.)
CACCAACCGTGTTCTACCAGCCTACCGAAACCTTCTCCTCCGGAGTCACCTAGTGCAG | 8550 fluorescence intensity (a.u.)
GTGTGGTGCGAGCAGTGATATTTTCTGTGTTGGGTCTGGGCGGAGTCACCTAGTGCAG | 8120 fluorescence intensity (a.u.)
GGGAGAGGGAGCCCCGCCGCCGCCGTCCTTGCAGCCGCCTCGGAGTCACCTAGTGCAG | 8590 fluorescence intensity (a.u.)
TACCTGACCTCGTCCTCGTGTTCACTAATACATGTGATTCCGGAGTCACCTAGTGCAG | 8960 fluorescence intensity (a.u.)
AACAATACTCTCTGCACTACGACCGTAGTCCTCGTCGTTTCGGAGTCACCTAGTGCAG | 10300 fluorescence intensity (a.u.)

Sequence | binding signal
GTCCTTATCTCGGCGTCCGAGCCCACCACCGCACCACCGCCGGAGTCACCTAGTGCAG | 10000 fluorescence intensity (a.u.)
GAGTTGTGTGTATGGACACGTGGTGGGCCAGGGGAGGGGACGGAGTCACCTAGTGCAG | 8660 fluorescence intensity (a.u.)
TGCTAGCTCGTTACCCTATCCCTCTTTTAGCATTTACCATCGGAGTCACCTAGTGCAG | 9700 fluorescence intensity (a.u.)
GACCGACTTAACCCAAACTTACCTCGGCGCCGGCGAGCTTCGGAGTCACCTAGTGCAG | 8580 fluorescence intensity (a.u.)
GATTTTAGCTTTTATACCTGTTCGAATATCTTCTTAAAACCGGAGTCACCTAGTGCAG | 9100 fluorescence intensity (a.u.)
CCGGATCACTCTCTCCACTCTCCGCTCCCCACCGCGCGAGCGGAGTCACCTAGTGCAG | 9660 fluorescence intensity (a.u.)
GTAAGCTTATGGTTTAGTCGTAGCTATTTACTACTTTCACCGGAGTCACCTAGTGCAG | 8760 fluorescence intensity (a.u.)
TGCATGTATTTTTGGCCGTGTATGCATATATGTATATGCGCGGAGTCACCTAGTGCAG | 8220 fluorescence intensity (a.u.)
TTTTTGAACGGTGCGTTTCGCTTTTCTCTCCCCACATTGACGGAGTCACCTAGTGCAG | 8050 fluorescence intensity (a.u.)
ATACTCTTATTAGGATCCATATGTCACATTCTTAAATTTGCGGAGTCACCTAGTGCAG | 8490 fluorescence intensity (a.u.)
CTTTTCACGTTTGGGCTTCACAGCATTCTAGCACCCCTGTCGGAGTCACCTAGTGCAG | 9350 fluorescence intensity (a.u.)
GTTTTATTGGTCGATCGCTGCGTCGTGGTTGTGTCTCGTGCGGAGTCACCTAGTGCAG | 8880 fluorescence intensity (a.u.)
ACTATGGGCTTTTGCATCAACAATTGCGAATTTTTTGTATCGGAGTCACCTAGTGCAG | 9280 fluorescence intensity (a.u.)
CGTCCACAACCCCGACATCGCCCTCGTCCAGGCCCGCTGGCGGAGTCACCTAGTGCAG | 8080 fluorescence intensity (a.u.)
TGAGTTATTCGTTCCGCTTTCAATTTTTCATTGCCAGAACCGGAGTCACCTAGTGCAG | 8070 fluorescence intensity (a.u.)
AGATGTAGTTCACTTGGCTTTCTGGTGGATTTTTCTTAATCGGAGTCACCTAGTGCAG | 9080 fluorescence intensity (a.u.)
TCTCTCGTTCATCCATCCAGCGGCACACACACCAAGCTAGCGGAGTCACCTAGTGCAG | 8090 fluorescence intensity (a.u.)
ACGTGGAGTCACGTGACTGGGCCGTGCCACTTTTTTTTATCGGAGTCACCTAGTGCAG | 9360 fluorescence intensity (a.u.)
CCCGTCACCCGTCACCTTGTCCACGCGCGGCGCGGCTACACGGAGTCACCTAGTGCAG | 13100 fluorescence intensity (a.u.)
TTCCTTTTGCTGGGATTGGTCTCTCATGAAGATGAGTTCACGGAGTCACCTAGTGCAG | 8850 fluorescence intensity (a.u.)
ATTCCCTGTCCACGTTCGTGTGTGTTCTGTGTTGTGTTGCCGGAGTCACCTAGTGCAG | 10900 fluorescence intensity (a.u.)

Sequence | binding signal
CACTATTCACGTTTAACGTTTGACCGTTCTTCTTATTTGACGGAGTCACCTAGTGCAG | 10300 fluorescence intensity (a.u.)
CCCTAGCCCAAACTCCATCCACTCCATCCACTGTGTCGCCCGGAGTCACCTAGTGCAG | 10900 fluorescence intensity (a.u.)
ATCATCCAAATTGTTGCTGAGGGGCTTGATTTATTGGGGTCGGAGTCACCTAGTGCAG | 8960 fluorescence intensity (a.u.)
ACTATAATTATGTTTTGTGGGTGTGTTTTTATCTTCTTCACGGAGTCACCTAGTGCAG | 9620 fluorescence intensity (a.u.)
CACCCCGGGACCCTAATTCATTGATCCTCCGCCGAAGTTTCGGAGTCACCTAGTGCAG | 9160 fluorescence intensity (a.u.)
AATTGTCGCACCGATGCCGCTATGAGCGTTTGACCATTCGCGGAGTCACCTAGTGCAG | 9160 fluorescence intensity (a.u.)
CATCCTCAATTAATTGGACATTCTATCTGTACGTGTACATCGGAGTCACCTAGTGCAG | 9460 fluorescence intensity (a.u.)
GGTTTTGTTAGTTCAAGGACGTCCGGTATCTGGTTTTGCGCGGAGTCACCTAGTGCAG | 8160 fluorescence intensity (a.u.)
TGGAGGGGTTTTCAAAATATCCGGTATCGCGGTTGAGTGACGGAGTCACCTAGTGCAG | 11800 fluorescence intensity (a.u.)
GATTCCACTGCCTGCCAAGTCCATACCTTTGGGCCGGCCCCGGAGTCACCTAGTGCAG | 8030 fluorescence intensity (a.u.)
CCCTAGCAGATGACCGCCTTCCGTACAACATTAACTCCACCGGAGTCACCTAGTGCAG | 9740 fluorescence intensity (a.u.)
AGTATTTTATTTCTTACTACCCACTTTATATGCACATTGTCGGAGTCACCTAGTGCAG | 8400 fluorescence intensity (a.u.)
CATCTGCCTCGCTTTCCCACACTAACGCCAACCCATCTCCCGGAGTCACCTAGTGCAG | 13100 fluorescence intensity (a.u.)
CTAGTTCATGTGCCACACCTATTTTTTTTTTCGGTCGTCCCGGAGTCACCTAGTGCAG | 9380 fluorescence intensity (a.u.)
GCCTCTCCTCTCGGTCTCGGGTCGTTTCTTTCTTGTCCACCGGAGTCACCTAGTGCAG | 8660 fluorescence intensity (a.u.)
CACAAAATTCCAACTTTTCCGTCACATCATTTTATTTTTACGGAGTCACCTAGTGCAG | 8610 fluorescence intensity (a.u.)
GAGGCGGAGAGCGAGAGGCGAGAGGGGACTGGGGAGGGGACGGAGTCACCTAGTGCAG | 9080 fluorescence intensity (a.u.)
AGGGGCTGTTTGGTTTCCACCTTGTCACATCGGATGTTTACGGAGTCACCTAGTGCAG | 9140 fluorescence intensity (a.u.)
ACGGCACATATCTCACAATCTGATACCCAGCGGCCACAAACGGAGTCACCTAGTGCAG | 8540 fluorescence intensity (a.u.)
ACCCCACACTCAATCCTTACGAAATCCCATTTGATTTTGTCGGAGTCACCTAGTGCAG | 9150 fluorescence intensity (a.u.)
ACTTCCAACTCCGCCGCCCATTCAAAATCTCCGCCACCTCCGGAGTCACCTAGTGCAG | 9040 fluorescence intensity (a.u.)

Sequence | binding signal
GTCCCGATCCGATACAGTATGTCTTTCGCCGCCGCCTCTGCGGAGTCACCTAGTGCAG | 9350 fluorescence intensity (a.u.)
CATGGATATCTATAGCTCTCTAATCCATTGCCTCGTTTTTCGGAGTCACCTAGTGCAG | 9380 fluorescence intensity (a.u.)
TATGCATGACTTCTTTTTATCAGCTGTCCGATCTATATAACGGAGTCACCTAGTGCAG | 9530 fluorescence intensity (a.u.)
AATTTGACACGAAAGCCTTCCTGTGCCTTTTTATGGTAATCGGAGTCACCTAGTGCAG | 8920 fluorescence intensity (a.u.)
ACACCACTCTCTCGTTCTCTCTCTCTCTCCCCGTCTTCCTCGGAGTCACCTAGTGCAG | 9440 fluorescence intensity (a.u.)
CCATCAATCACCCCATCGATGCTTCTCCACCGGAGAAGTCCGGAGTCACCTAGTGCAG | 8690 fluorescence intensity (a.u.)
TGTATATAGGAAGTGTCTTTGCTCCATCTTACCTCCATTTCGGAGTCACCTAGTGCAG | 9000 fluorescence intensity (a.u.)
CTTCCAACACATTCTTAAGATTAACAAAGTCACTATTTTTCGGAGTCACCTAGTGCAG | 8330 fluorescence intensity (a.u.)
GGCGAGTGGCGGATTTGTTTTTGGTTTGTTTTTGAGTTTGCGGAGTCACCTAGTGCAG | 9060 fluorescence intensity (a.u.)
TGAACGATGCTTCGAATTTCTGACTTACACCAGCTTTGACCGGAGTCACCTAGTGCAG | 8260 fluorescence intensity (a.u.)
ATATATACTGTATTATCTTACTCCCTCCGTTCTATTTTGACGGAGTCACCTAGTGCAG | 8330 fluorescence intensity (a.u.)
CTGCTTATCACCATTATCTTTATGCTTGTGCTTATCAGCTCGGAGTCACCTAGTGCAG | 9530 fluorescence intensity (a.u.)
CTTGCCGCAAGACCACCGACCGTCGATTCCACGCCGCTCTCGGAGTCACCTAGTGCAG | 8870 fluorescence intensity (a.u.)
GCTCTGTCTGTGTGCGCCACGTACGTTATCGTCGACCGATCGGAGTCACCTAGTGCAG | 9330 fluorescence intensity (a.u.)
GGGTCGGTTTCTCTCTTGCTGTCTTCTCGATCGATCGATGCGGAGTCACCTAGTGCAG | 20200 fluorescence intensity (a.u.)
CGTCATATTTGCACCGTTTGGGTAGGGTGGGGATGGGGTGCGGAGTCACCTAGTGCAG | 18700 fluorescence intensity (a.u.)
CAACTAGGTTTTCGGCTACCGTTCTACACGGCCACACATGCGGAGTCACCTAGTGCAG | 8820 fluorescence intensity (a.u.)
ACGAATGGTTAAACATGTGAGAAAAAGTCAACAGCGTCATCGGAGTCACCTAGTGCAG | 9460 fluorescence intensity (a.u.)
GTTCTGTGATTTTTTGCTTACTTTTCTTGTTGTCTTGTTTCGGAGTCACCTAGTGCAG | 9870 fluorescence intensity (a.u.)
TACGCCCACTCTTTTTTTTCTATGAGTTCTGCTGACACGTCGGAGTCACCTAGTGCAG | 8240 fluorescence intensity (a.u.)
GACATTTTTTTTTCCTTCAACGCGCGAAACCTTGCATGTCCGGAGTCACCTAGTGCAG | 11700 fluorescence intensity (a.u.)

A second format for some results above:

| Sequence | binding signal |
| --- | --- |
| TGTATATAGGAAGTGTCTTTGCTCCATCTTACCTCCATTTCGGAGTCACCTAGTGCAG | 9000 fluorescence intensity (a.u.) |
| CTTCCAACACATTCTTAAGATTAACAAAGTCACTATTTTTCGGAGTCACCTAGTGCAG | 8330 fluorescence intensity (a.u.) |
| GGCGAGTGGCGGATTTGTTTTTGGTTTGTTTTTGAGTTTGCGGAGTCACCTAGTGCAG | 9060 fluorescence intensity (a.u.) |
